# Measurements from PubChem BioAssay AID1487 (National Center for Advancing Translational Sciences (NCATS), 2009).
# Among all 200,000 compounds or so, about 25 (0.01%) were called active. The shares of active, inactive and inconclusive entries below differ from those in the screen. Calls follow the shape of the dose curve; as a rule, active = well fitted inhibition curve with a large enough effect in the signal ratio, with a control signal flat (not every such curve was filed as active); inconclusive = small, poorly fitted or top-dose-only effect, or effect the other way, or a change in a side signal; inactive = flat fitted curve, though single readings scatter; the % refers to the signal ratio. Where the call is inconclusive, the potency comes from a doubtful curve fit.
# Experiment: qHTS Assay for Modulators of Lamin A Splicing
# Details: HeLa LMNA splicing GFP/RFP minigene ratio, 48 h; ratio change, negative = inhibition: at 46.1 µM (top of the series) unless noted
# Method in brief: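 S3 HeLa cells stably expressing lamin A-EGFP splicing minigene plus DsRed2, 600 cells/well, 48 h compound exposure at 37C. Laser-scanning cytometry; analysed as GFP (500-530 nm)/RFP (575-640 nm) total intensity ratio; 0.5% DMSO vehicle.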
# % is scaled to controls: 0 for no effect and ±100 for the full control effect; potency is read from the fitted curve at half-maximal effect.
SMILES,"ratio change, negative = inhibition",Potency
COc1ccc(OC)c(C2CC(=O)NC(SC)=C2C#N)c1 (configuration not stated),inactive: -5.23%,–
O=c1cc(-c2ccc(O)cc2)oc2c([C@H]3O[C@@H](CO)[C@@H](O)[C@@H](O)[C@@H]3O)c(O)cc(O)c12,inactive: -10.5%,–
COc1cccc(Oc2cnc(N)nc2-c2ccc(OC)cc2O)c1,inconclusive: -37.4%,–
Nc1cccc2cnccc12,–,"inconclusive: 0.794 µM [cytotoxic, full curve, poor fit]"
Cc1ccccc1C(=O)Nc1ccccc1-c1nnn(CC(=O)Nc2ccc3c(c2)OCCO3)n1,inactive: 10.7%,–
Cc1ccccc1-c1nccc(Nc2ccc(F)cc2)n1,inactive: -17.1%,–
COC(=O)c1c(NC(=O)c2cccnc2Cl)sc(C(=O)N(C)C)c1C,inactive: -9.93%,–
O=C(O)c1ccc(-c2ccccc2)[nH]1,inconclusive: 2.01%,–
CCOC(=O)CC(=O)CSc1nc(C)cc(-c2cccnc2)c1C#N,inactive: 4.63%,–
CNc1nc(-c2ccccc2CN(C)C)nc2ccccc12,inactive: -5.21%,–
O=C1CN(C(=O)COC(=O)CCSc2ccccc2Cl)c2ccccc2N1,inactive: 1.86%,–
Cc1oc2ncn(C)c(=O)c2c1C(=O)NCc1ccc(Cl)cc1,inconclusive: 18.4% [at 46 µM],–
COc1ccc(-c2nc(Cn3c(SCc4cccc(C(F)(F)F)c4)nc4cccnc43)c(C)o2)cc1OC,inconclusive: -27.2% [at 46 µM],–
COc1cc2c3nnc(-c4ccc(F)cc4)c-3cn(Cc3ccccc3)c2cc1OC,–,"inconclusive: 35.5 µM [rising, single point]"
Cc1cc(N2CCCC2)nc2c(C)cccc12,inconclusive: -12.8% [at 46 µM],–
Cc1nc(NC(=O)CSc2nnc(-c3ccc4c(c3)OCO4)o2)c(Cl)cc1Cl,inconclusive: -2.21%,–
COc1ccc(C(=O)NNc2ncnc3c2cnn3-c2cccc(Cl)c2)cc1OC,–,"inconclusive: 35.5 µM [cytotoxic, partial curve]"
NC(=O)c1cc2ccc(O)cc2oc1=Nc1ccccc1,inactive: 24.2%,–
Cc1cs/c(=N\N=C\c2ccccc2)n1Cc1ccco1,–,"inconclusive: 35.5 µM [fluorescent, single point]"
O=C(Cc1ccccc1)NCc1ccc2c(c1)OCO2,inactive: 10.6%,–
O[Si](CCCN1CCCCC1)(c1ccc(F)cc1)C1CCCCC1 (configuration not stated),–,"inconclusive: 20 µM [cytotoxic, partial curve, poor fit]"

SMILES,"ratio change, negative = inhibition",Potency
O=S(=O)(c1ccc(F)cc1)N1CCN(CC(O)COCc2cccs2)CC1 (configuration not stated),inactive: 13.2%,–
COc1ccc(S(=O)(=O)N2CCC(C(=O)NCc3ccccc3)CC2)cc1OC,inconclusive: -7.23% [at 46 µM],–
O=C(CN1C(=O)COc2ccccc21)N(Cc1ccccc1)Cc1ccccn1,inactive: 2.8%,–
COc1cc(C(=O)Nc2ccc3c(c2)N(C2CCCC2)C(=O)c2ccccc2S3)cc(OC)c1OC,inconclusive: 16% [at 46 µM],–
CC(C)Oc1ccc(C(=O)NCC(c2ccc(N(C)C)cc2)N2CCCC2)cc1 (configuration not stated),inconclusive: -15.2% [at 46 µM],–
O=C(Cc1cc(=O)[nH][nH]1)N/N=C/c1c(F)cccc1Cl,–,"inconclusive: 5.62 µM [rising, single point]"
c1nc2sc3c(c2c2nnnn12)CCCC3,inactive: 15.2%,–
O=C1/C(=C/c2ccc3c(c2)OCO3)CCC/C1=C\c1ccc2c(c1)OCO2,–,"inconclusive: 35.5 µM [cytotoxic, single point]"
CCOC(=O)C(NC(=O)c1ccccc1)=C1CCCCC1,inconclusive: 0.407%,–
CC1CC2(NC(=O)NC2=O)C(C)CN1C (configuration not stated),inactive: -2.41%,–
CC1=C(C#N)CCC(=O)N1Cc1c(F)cccc1Cl,inconclusive: -6.42% [at 9.22 µM],–
COC(=O)c1c(C)sc(-c2c(-c3ccc4c(c3)OCCO4)[nH]c3c2c(=O)n(C)c(=O)n3C)c1O,inconclusive: 31.7% [at 46 µM],–
Nc1ccc(C(=O)N2CCCC2)cc1,inactive: 0.131%,–
C=CCn1c(SCC(=O)Nc2ccc3c(c2)OCO3)nnc1-c1cc(Br)ccc1O,inconclusive: -5.42%,–
COc1ccc(CNC(=O)c2cccc(C)c2[N+](=O)[O-])cc1,inconclusive: 4.5%,–
COC(=O)CC1c2cc(OC)c(OC)cc2CCN1C(=O)Nc1ccc(C)cc1Cl (configuration not stated),inactive: -0.44% [at 46 µM],–
CCn1c(N2CCN(CC(=O)c3c[nH]c4ccccc34)CC2)nc2c1c(=O)[nH]c(=O)n2C,inconclusive: -8.31%,–
CN(C)c1ccc(-c2ccncc2)cc1,inactive: 10.6%,–
O=C(NNc1ccc(Cl)cc1)c1c(F)cccc1Cl,inconclusive: 40% [at 46 µM],–
O=C(Cc1ccccc1[N+](=O)[O-])NCc1ccncc1,inactive: 3.27% [at 46 µM],–
c1ccc(CNc2nc(-c3cccs3)nc3ccccc23)nc1,inconclusive: -22.1% [at 46 µM],–

# One compound at a time, from the list above. Values in the order: ratio change, negative = inhibition | Potency
# CC1CC2(NC(=O)NC2=O)C(C)CN1C (configuration not stated) is listed as inactive: -2.41% | –
# COc1cc(C(=O)Nc2ccc3c(c2)N(C2CCCC2)C(=O)c2ccccc2S3)cc(OC)c1OC is listed as inconclusive: 16% [at 46 µM] | –
# C=CCn1c(SCC(=O)Nc2ccc3c(c2)OCO3)nnc1-c1cc(Br)ccc1O is listed as inconclusive: -5.42% | –

# The list goes on:

SMILES,"ratio change, negative = inhibition",Potency
COc1ccc(N2CCN(C(CNC(=O)C(=O)NCc3cccs3)c3ccco3)CC2)cc1 (configuration not stated),inconclusive: -28% [at 46 µM],–
N#CCCN1CCN(C(=S)c2ccc(-c3cc(Cl)ccc3Cl)o2)CC1,inconclusive: -17.7%,–
N#CCCN1CCN(C2=NC(=O)C(=C3CCCCC3)S2)CC1,inconclusive: 13.3%,–
COc1cccc(C(=O)N(C)c2nnc(-c3ccncc3)s2)c1,inactive: -2.69%,–
Cn1nnnc1SCCNCc1ccc(F)cc1,–,"inconclusive: 0.0071 µM [activator, full curve, poor fit]"
CCCNC(=O)c1ccc(-n2c(-c3ccccc3)cc3c2CCC(C)C3)cc1 (configuration not stated),inconclusive: -21.5% [at 46 µM],–
CCOc1ccccc1NC(=O)c1c(NCc2sccc2C)sc2c1CCCCC2,inconclusive: -21.1% [at 46 µM],–
COC(=O)C1=C(C(=O)OC)[C@@H]2N(C)c3ccccc3[C@@]23C[C@@H](CO)N=C3N1,inconclusive: 5.98% [at 9.22 µM],–
O=C(CCC(=O)NNC(=O)c1ccc([N+](=O)[O-])cc1)NCc1ccccc1,inconclusive: -7.4% [at 46 µM],–
CN(C)S(=O)(=O)c1cccc(-c2nnc(SCc3ccc4c(c3)OCCO4)o2)c1,–,"inconclusive: 22.4 µM [falling, single point]"
Cc1ccc(N(C(=O)CNC(=O)c2ccco2)C(C(=O)NC2CCCC2)c2cccnc2)cc1C (configuration not stated),inconclusive: 1.98%,–
Cc1ccc(-c2nc(CS(=O)CC(=O)N3CCN(c4ccc(Cl)cc4)CC3)c(C)o2)cc1 (configuration not stated),inconclusive: -27.4% [at 46 µM],–
CCC(=O)NC(Nc1sc2c(c1C(=O)OC)CCC2)C(Cl)(Cl)Cl (configuration not stated),–,"inconclusive: 35.5 µM [falling, single point]"
CCN(CC)CCOC(=O)c1ccc(NC(=O)c2cn(-c3ccccc3)nc2-c2cccs2)cc1,inconclusive: -39.9% [at 46 µM],–
Cc1noc(C)c1S(=O)(=O)N1CCC(C(=O)Nc2ccc(OC(F)(F)F)cc2)CC1,inconclusive: 8.75%,–
CCOC(=O)c1sc2nc(-c3ccco3)c3c(c2c1N)CC(C)(C)OC3,inactive: -1.99%,–
CC(=O)c1c(C)[nH]c(C(=O)O)c1C,inactive: -15.7% [at 46 µM],–
O=C(Nc1ccc(Cl)cc1)N1CCN(c2ccc3nnc(-c4ccc(F)cc4)n3n2)CC1,inconclusive: -32.5%,–
Cc1ccc(C(=O)NNC(=S)NC(=O)c2ccc(Cl)cc2)cc1,inconclusive: -2.13%,–
CCOc1cc(CNCC(C)C)c(Cl)cc1OCC(=O)Nc1ccccc1,inconclusive: -25.6% [at 46 µM],–
CCOC(=O)c1c(O)c2c([nH]c1=O)CCCC2,–,"inconclusive: 4.47 µM [cytotoxic, partial curve]"

SMILES,"ratio change, negative = inhibition",Potency
CCNC(=O)Cc1ccc(NC(=O)N2CCCCc3ccccc32)cc1,inactive: 2.95% [at 46 µM],–
Cc1ccc(C)c(C(=O)OCC(=O)Nc2cccc(S(=O)(=O)NC3=NCCCCC3)c2)c1,inactive: 13.4% [at 9.22 µM],–
Cc1cccc2sc(NC(=O)C3CCCO3)nc12 (configuration not stated),inactive: -7.16%,–
O=C(Nc1nc2c(s1)CN(Cc1ccccc1)CC2)c1cccc(S(=O)(=O)N2CCc3ccccc32)c1,inactive: 10.8%,–
COc1ccccc1NC(=O)c1c(C)cc(C)nc1SCC(=O)c1ccc(Cl)cc1,inactive: -6.14% [at 46 µM],–
CCN(Cc1ccccc1)C(c1cc2cc(C)cc(C)c2[nH]c1=O)c1nnnn1CCOC (configuration not stated),inconclusive: 12.8%,–
CCCn1nc(Oc2nc(NCC)nc(NCC)n2)ccc1=O,–,"inconclusive: 11.2 µM [inhibitor, single point]"
COc1ccc(OC)c(CCNC(=O)Cn2ncc3c([nH]c4ccccc43)c2=O)c1,inconclusive: 28% [at 46 µM],–
NNc1ncnc2c1cnn2-c1ccccc1,–,"inconclusive: 35.5 µM [falling, single point]"
O=C(N/N=C/c1ccc(F)cc1)c1sccc1OCc1ccc(F)cc1,inconclusive: -6.28%,–
Cc1cc(C)c2c(-n3cccc3)c(C(=O)NNS(=O)(=O)c3ccc(Cl)cc3)sc2n1,inactive: 8.64%,–
CCOc1ccc(C(CC(=O)O)NC(=O)COc2ccccc2)cc1OC (configuration not stated),inconclusive: 30.1% [at 9.22 µM],–
Cn1c(SCc2cccc(C(F)(F)F)c2)nnc1-c1ccco1,inconclusive: 8.39%,–
CCc1cc2c(=O)n(Cc3ccco3)c(SCC(=O)NC3CCS(=O)(=O)C3)nc2s1 (configuration not stated),inactive: 9.39% [at 46 µM],–
Cc1nn(CC(=O)NCC2CCCO2)c(C)c1[N+](=O)[O-] (configuration not stated),inconclusive: 4.26% [at 46 µM],–
Cc1cccc(Cn2cccc2CNS(=O)(=O)c2ccc(Br)cc2)c1,–,"inconclusive: 35.5 µM [cytotoxic, single point]"
NS(=O)(=O)c1ccc(CCNC(=O)CN2CCN(c3ccccc3F)CC2)cc1,inconclusive: -14.7%,–
COc1cc(C)c(NC(=S)Nc2ccc(C)c(Cl)c2)cc1OC,inactive: 2.39%,–
COc1ccc(OC)c(NC(=O)CN(c2ccc(C)cc2)S(=O)(=O)c2c(C)noc2C)c1,inconclusive: 3.09%,–

# Four structures from above, ordered by length of the SMILES, smallest number first:
SMILES,"ratio change, negative = inhibition",Potency
COc1cc(C)c(NC(=S)Nc2ccc(C)c(Cl)c2)cc1OC,inactive: 2.39%,–
CCNC(=O)Cc1ccc(NC(=O)N2CCCCc3ccccc32)cc1,inactive: 2.95% [at 46 µM],–
CCOc1ccc(C(CC(=O)O)NC(=O)COc2ccccc2)cc1OC (configuration not stated),inconclusive: 30.1% [at 9.22 µM],–
COc1ccc(OC)c(NC(=O)CN(c2ccc(C)cc2)S(=O)(=O)c2c(C)noc2C)c1,inconclusive: 3.09%,–
